{"source": "PubChem BioAssay AID1347076", "about": "(National Center for Advancing Translational Sciences (NCATS), 2019)", "note": "The campaign covered roughly 400,000 compounds. About 13,000 (3.2%) were called active. Inconclusive results, whose numbers are uncertain, are shown with a selection of clear calls. Calls follow the shape of the dose curve; as a rule, active = well fitted cell-killing curve with a large enough effect; inconclusive = small, poorly fitted or top-dose-only effect, or effect the other way; inactive = flat fitted curve, though single readings scatter. Potencies beside an inconclusive call are fits to weak or partial responses and may not hold up. % is scaled to controls: 0 for no effect and ±100 for the full control effect; potency is read from the fitted curve at half-maximal effect.", "data": [{"assay": "qHTS assay for MDR1-selective chemotherapeutics: Primary screen using the drug-selected MDR subline cells KB-V1; also: nearly all actives have a fitted effect of over 60% in size", "conditions": "KB-V1 MDR cells viability, CellTiter-Glo, 72 h; activity change, negative = cytotoxicity: at 46.1 µM (top of the series)", "outline": "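KB-V1, DMEM (no phenol red) + 10% FBS; cpd pin-transferred, titration series; 72 h, 37 degrees C; CellTiter-Glo, luminescence. Data normalized, curve-fit.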", "values": [{"smiles": "O=c1oc(CCCO)cc2ccc(C#Cc3cccnc3)cc12", "Potency": "inconclusive: 29.1 µM [rising, single point]"}, {"smiles": "CCn1c(-c2nn(C)c(C)c2Cl)n[nH]c1=S", "Potency": "inconclusive: 20.6 µM [cytotoxic, partial curve]"}, {"smiles": "Cc1cccc(/C=N\\NC(=O)c2ccc(Cl)cc2)c1O", "Potency": "inconclusive: 29.1 µM [cytotoxic, single point]"}, {"smiles": "C[C@@H]1CN([C@@H](C)CO)C(=O)CCCn2nncc2CO[C@@H]1CN(C)S(=O)(=O)c1ccc(-c2ccccc2)cc1", "Potency": "inactive"}, {"smiles": "Fc1ccc(-c2cc(-c3ccccc3)c3c(n2)-c2ccccc2OC3)cc1", "Potency": "inconclusive: 25.9 µM [rising, single point]"}, {"smiles": "Cc1cccc(N(CC(=O)N2CCCC2)S(C)(=O)=O)c1C", "Potency": "inactive"}, {"smiles": "N#Cc1c(-c2ccccc2)cc(-c2ccc3c(c2)OCO3)[nH]c1=O", "Potency": "inconclusive: 20.6 µM [cytotoxic, single point]"}, {"smiles": "O=C(NNC(=O)C1CCC1)c1ccccc1", "Potency": "inconclusive: 23.1 µM [rising, single point]"}, {"smiles": "O=Cc1sc(Nc2ccccc2)nc1Cl", "Potency": "inconclusive: 18.4 µM [rising, single point]"}, {"smiles": "COc1ccccc1OCCCn1c(=O)sc2ccccc21", "Potency": "active: 14.6 µM"}, {"smiles": "CSc1nsc2nc(=O)c(/C=C3\\C(C)=Nc4ccccc43)c(N)n12", "Potency": "inactive"}, {"smiles": "O=C(COc1ccc(Br)cc1)N1CCN(S(=O)(=O)/C=C/c2ccccc2)CC1", "Potency": "inconclusive: 32.6 µM [cytotoxic, single point]"}, {"smiles": "COc1cc(NC(=O)CN2C(=O)COc3ccc(S(=O)(=O)NC4CCCC4)cc32)cc(OC)c1", "Potency": "inactive"}, {"smiles": "Cc1ccnc(Nc2nc3ccccc3o2)n1", "Potency": "inconclusive: 23.1 µM [cytotoxic, single point]"}, {"smiles": "CC1CCCCN1C/C=C/c1ccccc1[N+](=O)[O-]", "note": "(configuration not stated)", "Potency": "inconclusive: 14.6 µM [cytotoxic, partial curve, poor fit]"}, {"smiles": "c1ccn2cc(-c3ccc4c(c3)OCO4)cc2c1", "Potency": "inactive"}, {"smiles": "CCOc1cc(S(=O)(=O)NCCc2ccc(OC)c(OC)c2)c(OCC)cc1-n1cnnn1", "Potency": "inactive"}, {"smiles": "NC(=O)C1CCN(C(=O)NC(=O)c2ccccc2)CC1", "Potency": "inconclusive: 23.1 µM [rising, single point]"}, {"smiles": "COc1ccc(C2CC(C(F)(F)F)n3nc(C(=O)O)cc3N2)cc1", "note": "(configuration not stated)", "Potency": "inactive"}, {"smiles": "Cc1ccc(CNC(=O)C(c2ccccc2)c2ccccc2)cc1", "Potency": "inactive"}, {"smiles": "COc1ccc(/C=C(\\C#N)c2nc3ccc(C)cc3[nH]2)cc1Oc1ccc(C(F)(F)F)cc1[N+](=O)[O-]", "Potency": "inconclusive: 29.1 µM [cytotoxic, single point]"}, {"smiles": "COc1cccc(CN2CCN(Cc3ccc(C#CC(C)(C)O)s3)CC2CCO)c1", "note": "(configuration not stated)", "Potency": "inconclusive: 29.1 µM [cytotoxic, single point]"}, {"smiles": "C[C@]12c3[nH]c4ccccc4c3CCN1C(=O)C(CC(=O)NCCCn1ccnc1)C[C@@H]2C(=O)N1CCCCC1", "note": "(some centres not stated)", "Potency": "inactive"}, {"smiles": "O=C(CN(C1CCCCC1)S(=O)(=O)c1ccc(F)cc1)NCC1CCCO1", "note": "(configuration not stated)", "Potency": "inconclusive: 4.11 µM [cytotoxic, full curve, poor fit]"}, {"smiles": "Cc1nn(-c2nc3ccccc3s2)c(C)c1Oc1ccccc1O", "Potency": "inactive"}, {"smiles": "O=C(NCC(c1ccco1)N1CCN(c2ccccc2F)CC1)c1ccc2c(c1)OCO2", "note": "(configuration not stated)", "Potency": "inconclusive: 20.6 µM [cytotoxic, single point]"}, {"smiles": "CNc1nc2c(c(=O)[nH]c(=O)n2C)n1CCCc1ccccc1", "Potency": "inactive"}, {"smiles": "CCOC(=O)c1nnc(-c2ccccc2)nc1NCc1ccccc1", "Potency": "inconclusive: 25.9 µM [cytotoxic, single point]"}, {"smiles": "O=C(COC(=O)c1cc(-c2ccccc2)nc2ccccc12)NC1CC1", "Potency": "inconclusive: 0.0103 µM [cytotoxic, full curve, poor fit]"}, {"smiles": "C=CCSc1n[nH]c(-c2ccc(OCCC)cc2)n1", "Potency": "inactive"}, {"smiles": "CC(=O)Cn1c(C(F)(F)F)nc2ccccc21", "Potency": "inconclusive: 18.4 µM [rising, partial curve, poor fit]"}, {"smiles": "COc1ccc(OC)c(NC(=O)c2sc3nc(C)cc(C)c3c2N)c1", "Potency": "inconclusive: 16.4 µM [cytotoxic, partial curve, poor fit]"}, {"smiles": "Cc1cc(C)n2nc(-c3cccnc3)nc2n1", "activity change, negative = cytotoxicity": "inconclusive: 67.9%"}, {"smiles": "CCC(C)c1ccccc1OCC(=O)Nc1ccc(S(=O)(=O)Nc2cc(C)on2)cc1", "note": "(configuration not stated)", "Potency": "inactive"}, {"smiles": "COc1ccc(/C=N/NC(=O)c2ccccc2O)cc1CSc1ccccn1", "Potency": "inconclusive: 18.4 µM [cytotoxic, single point]"}, {"smiles": "O=C(Nc1ncccc1O)c1ccc(S(=O)(=O)Nc2ccccc2)cc1", "Potency": "active: 9.2 µM"}, {"smiles": "O=C(CN1CCN(S(=O)(=O)c2ccc(F)c(Cl)c2)CC1)N1CCNC1=O", "Potency": "inconclusive: 23.1 µM [rising, single point]"}, {"smiles": "NC(N)=NCCC[C@H](NC(=O)OCc1ccccc1)C(=O)O", "Potency": "inconclusive: 10.3 µM [rising, partial curve]"}, {"smiles": "COc1ccc(S(=O)(=O)NCC2CCCO2)cc1NC(=O)c1ccc(Cl)cc1", "note": "(configuration not stated)", "Potency": "inconclusive: 14.6 µM [cytotoxic, partial curve]"}, {"smiles": "CC(C)CCNC(=O)c1ccc(CSCc2cccc(F)c2)o1", "Potency": "inconclusive: 20.6 µM [cytotoxic, single point]"}, {"smiles": "Oc1ccccc1C=NNC(=S)Nc1ccc(F)cc1", "Potency": "inactive"}, {"smiles": "CCOc1cc(NC(=S)NCC2CCCO2)c(OCC)cc1NC(=O)C1CC1", "note": "(configuration not stated)", "Potency": "inconclusive: 18.4 µM [cytotoxic, partial curve, poor fit]"}, {"smiles": "CCOC(=O)C1=C(C)OC(N)=C(C#N)C1c1cc(SCC)oc1C", "note": "(configuration not stated)", "Potency": "inactive"}, {"smiles": "O=C(c1ccccc1Cl)N1CCC(c2nc3ccccc3s2)CC1", "Potency": "active: 13 µM"}, {"smiles": "COc1ccc(-c2cc(C(=O)N3CCCCCC3)c3ccccc3n2)c(OC)c1", "Potency": "inactive"}, {"smiles": "CC(C)c1ccc(NC(=O)C(c2ccccc2)N2CCC3(CC2)OCCO3)cc1", "note": "(configuration not stated)", "Potency": "inconclusive: 11.6 µM [cytotoxic, partial curve, poor fit]"}, {"smiles": "CCN(CC)S(=O)(=O)c1ccc(C(=O)NC2CC(=O)N(c3ccc(OC)c(OC)c3)C2)cc1", "note": "(configuration not stated)", "Potency": "inconclusive: 8.2 µM [rising, partial curve]"}]}]}
